We go through one substance from article PMC5220304.

By UniProt entry, the sequences of proteins in these tests, tags left out. Where a name states a change or a piece, a line headed by the entry shows the natural chain unless it says otherwise.
UniProt Q336P5: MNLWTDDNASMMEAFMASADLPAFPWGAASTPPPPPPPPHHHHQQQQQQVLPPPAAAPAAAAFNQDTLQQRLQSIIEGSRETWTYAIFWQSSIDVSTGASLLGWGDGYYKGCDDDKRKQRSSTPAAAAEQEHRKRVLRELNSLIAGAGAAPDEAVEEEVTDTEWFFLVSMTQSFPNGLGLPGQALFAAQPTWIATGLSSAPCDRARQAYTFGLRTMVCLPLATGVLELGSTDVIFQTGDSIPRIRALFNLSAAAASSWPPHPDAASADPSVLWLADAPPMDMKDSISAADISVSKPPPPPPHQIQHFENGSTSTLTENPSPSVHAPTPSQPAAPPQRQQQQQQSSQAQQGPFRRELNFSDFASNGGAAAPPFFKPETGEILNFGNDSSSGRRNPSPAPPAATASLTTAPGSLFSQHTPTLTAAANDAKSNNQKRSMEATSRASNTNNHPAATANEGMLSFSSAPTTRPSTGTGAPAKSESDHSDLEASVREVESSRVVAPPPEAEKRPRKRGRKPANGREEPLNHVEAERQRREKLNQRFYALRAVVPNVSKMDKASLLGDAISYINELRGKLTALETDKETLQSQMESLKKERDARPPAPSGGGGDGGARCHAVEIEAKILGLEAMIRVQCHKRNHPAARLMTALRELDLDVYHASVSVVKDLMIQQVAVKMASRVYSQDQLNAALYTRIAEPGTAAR
UniProt Q0JP90: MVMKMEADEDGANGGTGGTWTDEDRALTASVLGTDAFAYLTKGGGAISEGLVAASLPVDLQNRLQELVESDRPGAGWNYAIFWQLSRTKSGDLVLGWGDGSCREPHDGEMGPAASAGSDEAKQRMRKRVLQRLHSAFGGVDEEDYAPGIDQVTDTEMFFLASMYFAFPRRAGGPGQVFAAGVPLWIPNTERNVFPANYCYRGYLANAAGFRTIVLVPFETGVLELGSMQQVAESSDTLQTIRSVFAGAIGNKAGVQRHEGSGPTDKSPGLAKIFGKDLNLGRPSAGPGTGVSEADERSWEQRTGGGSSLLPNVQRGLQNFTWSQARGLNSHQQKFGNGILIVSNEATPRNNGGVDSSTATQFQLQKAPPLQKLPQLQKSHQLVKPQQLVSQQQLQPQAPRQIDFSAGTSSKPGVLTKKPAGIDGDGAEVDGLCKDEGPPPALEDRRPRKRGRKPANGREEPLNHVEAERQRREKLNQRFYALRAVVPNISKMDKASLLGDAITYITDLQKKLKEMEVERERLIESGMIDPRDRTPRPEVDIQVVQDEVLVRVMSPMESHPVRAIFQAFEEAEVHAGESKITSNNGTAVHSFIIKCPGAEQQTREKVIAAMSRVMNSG

These are yes or no findings as the source states them, for the method shown. Binding seen in cells or lysates may run through a third protein. A result given as binding can be weak or reduced; the word gives no strength.

The target of this experiment is OsMYC2 fused to a half of EYFP (nYFP-OsMYC2 and cYFP-OsMYC2) (rice (Oryza sativa)) (UniProt Q336P5). The experiment in a line: split reporter; BiFC: nEYFP-fused protein, cEYFP-fused protein and DsRed1 under the CaMV 35S promoter, bombarded into onion epidermal cells; 25 °C in darkness for 24 h; YFP fluorescence by microscopy.

For “cYFP-OsMYL2 (OsMYC2-like protein 2 fused to cEYFP) (from UniProt Q0JP90)”, the binding entry was “binds”.
